These are yes or no findings as the source states them, for the method shown. Some binding calls cover weakened binding; strength is not graded here.
T1: Drosophila Pygo PHD finger (amino acids 747-808), free (Drosophila) (UniProt Q9V9W8)
T1 sequence: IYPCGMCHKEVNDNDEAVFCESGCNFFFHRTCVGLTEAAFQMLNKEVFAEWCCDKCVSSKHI

T2: hPygo1 PHD finger (amino acids 340-402) (human) (UniProt Q9Y3Y4)
T2 sequence: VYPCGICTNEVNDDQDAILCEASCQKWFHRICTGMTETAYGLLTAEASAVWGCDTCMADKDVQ

T3: hPygo1 PHD finger (amino acids 333-402), free (human) (UniProt Q9Y3Y4)
T3 sequence: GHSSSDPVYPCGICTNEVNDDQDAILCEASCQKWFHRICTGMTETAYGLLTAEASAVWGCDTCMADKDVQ

T4: hPygo1 PHD finger W366F (human) (UniProt Q9Y3Y4)
T4 sequence: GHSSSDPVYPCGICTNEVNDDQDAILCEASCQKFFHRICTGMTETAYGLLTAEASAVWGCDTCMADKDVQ

T5: hPygo1 PHD finger V350E (human) (UniProt Q9Y3Y4)
T5 sequence: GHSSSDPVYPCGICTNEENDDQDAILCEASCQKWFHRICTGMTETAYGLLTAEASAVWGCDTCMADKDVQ

T6: hPygo1 PHD finger A356E (human) (UniProt Q9Y3Y4)
T6 sequence: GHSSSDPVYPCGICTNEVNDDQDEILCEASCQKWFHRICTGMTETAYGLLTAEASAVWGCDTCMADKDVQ

T7: hPygo1 PHD finger W366E (human) (UniProt Q9Y3Y4)
T7 sequence: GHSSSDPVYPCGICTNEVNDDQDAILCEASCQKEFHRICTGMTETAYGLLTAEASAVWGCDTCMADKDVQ


Tests used:
[1] = target: T1, Drosophila Pygo PHD finger (amino acids 747-808), free (Drosophila); assay: co-expression and co-purification; GST-PHD and MBP-HD1 coexpressed from a bicistronic vector in E. coli; complex purified; both purified
[2] = target: T2, hPygo1 PHD finger (amino acids 340-402) (human); assay: crystal structure; ternary complexes: 10 mg/ml hPHD(340-402)-HD1 mixed with 5x molar excess of H3K4me2 9-mer or H3R2me2aK4me2 18-mer peptide; both purified
[3] = target: T3, hPygo1 PHD finger (amino acids 333-402), free (human); assay: crystal structure; binary PHD-HD1 complexes (hPHD_W366F-HD1, WT1, WT2); vapor diffusion at 19°C; both purified
[4] = target: T4, hPygo1 PHD finger W366F (human); assay: as above
[5] = target: T5, hPygo1 PHD finger V350E (human); assay: complex formation of PHD mutants with HD1; Figure S1D; data not shown
[6] = target: T6, hPygo1 PHD finger A356E (human); assay: as above
[7] = target: T7, hPygo1 PHD finger W366E (human); assay: as above
[8] = target: T3, hPygo1 PHD finger (amino acids 333-402), free (human); assay: SEC; PHD and HD1 coexpressed in bacteria, complex purified and run on gel filtration (Figure S1); both purified

binding [1]	binding [2]	binding [3]	binding [4]	binding [5]	binding [6]	binding [7]	binding [8]	Binder
binds								YMQQQNHIFVFSTQLANKGAESVLSGQFQTIIAYH (domain or fragment, UniProt Q961D9 316-350) [Lgs HD1 domain (amino acids 316-350)]
	binds	binds	binds	binds	binds	binds	binds	VYVFSTEMANKAAEAVLKGQVETIVSFHI (domain or fragment, UniProt O00512 177-205) [hBCL9 HD1 domain (amino acids 177-205)]

From PMC2726290, “Decoding of Methylated Histone H3 Tail by the Pygo-BCL9 Wnt Signaling Complex” (Molecular Cell, 2008)
